Substitutions are numbered along the chain they refer to. Like-named read-outs stand apart in the source and are kept apart here. No constants are given. Whether binding was seen depends on the method and setting. In cells and extracts the contact can be indirect. A yes stands for co-enrichment or nearness to the bait. Other partners may have been found. Tags and fused reporters may be left off the sequences shown.
T1: FLAG-tagged DND1 1-235 dsRBD truncation mutant (human) (UniProt Q8IYX4)
T1 sequence: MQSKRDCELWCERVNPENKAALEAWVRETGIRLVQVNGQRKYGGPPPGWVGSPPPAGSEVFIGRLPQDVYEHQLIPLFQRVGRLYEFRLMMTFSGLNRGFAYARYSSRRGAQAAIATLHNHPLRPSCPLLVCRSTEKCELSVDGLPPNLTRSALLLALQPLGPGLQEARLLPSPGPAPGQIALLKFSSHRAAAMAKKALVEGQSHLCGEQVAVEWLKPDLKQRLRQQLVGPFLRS

By UniProt entry, the sequences of proteins in these tests, tags left out.
UniProt Q92841: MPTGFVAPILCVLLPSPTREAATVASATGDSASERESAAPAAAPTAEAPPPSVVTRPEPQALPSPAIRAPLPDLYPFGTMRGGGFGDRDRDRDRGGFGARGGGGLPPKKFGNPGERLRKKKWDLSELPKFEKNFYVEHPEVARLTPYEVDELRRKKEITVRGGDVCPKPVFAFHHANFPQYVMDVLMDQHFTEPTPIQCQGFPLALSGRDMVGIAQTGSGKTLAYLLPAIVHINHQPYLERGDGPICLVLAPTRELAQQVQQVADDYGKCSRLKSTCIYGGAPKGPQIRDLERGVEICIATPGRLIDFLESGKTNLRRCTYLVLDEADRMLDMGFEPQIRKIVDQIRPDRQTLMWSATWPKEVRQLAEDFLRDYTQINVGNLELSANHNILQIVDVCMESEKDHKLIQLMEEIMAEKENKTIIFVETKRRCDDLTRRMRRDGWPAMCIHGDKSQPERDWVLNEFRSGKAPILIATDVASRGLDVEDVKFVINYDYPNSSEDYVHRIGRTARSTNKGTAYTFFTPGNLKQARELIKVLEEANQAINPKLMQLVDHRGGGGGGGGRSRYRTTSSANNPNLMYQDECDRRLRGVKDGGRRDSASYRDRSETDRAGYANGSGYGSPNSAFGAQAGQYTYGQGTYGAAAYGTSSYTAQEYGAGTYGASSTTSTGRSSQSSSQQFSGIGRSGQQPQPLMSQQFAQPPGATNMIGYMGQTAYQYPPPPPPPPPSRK
UniProt Q15717: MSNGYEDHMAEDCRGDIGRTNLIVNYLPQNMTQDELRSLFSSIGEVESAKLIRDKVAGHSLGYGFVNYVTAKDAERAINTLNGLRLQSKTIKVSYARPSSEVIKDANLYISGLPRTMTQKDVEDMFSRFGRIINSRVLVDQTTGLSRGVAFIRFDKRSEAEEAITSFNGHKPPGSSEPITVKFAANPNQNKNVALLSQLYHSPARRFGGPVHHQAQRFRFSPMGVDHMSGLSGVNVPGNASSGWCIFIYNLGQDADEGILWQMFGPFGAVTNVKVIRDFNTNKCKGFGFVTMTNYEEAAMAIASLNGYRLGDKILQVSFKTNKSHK
UniProt O60506: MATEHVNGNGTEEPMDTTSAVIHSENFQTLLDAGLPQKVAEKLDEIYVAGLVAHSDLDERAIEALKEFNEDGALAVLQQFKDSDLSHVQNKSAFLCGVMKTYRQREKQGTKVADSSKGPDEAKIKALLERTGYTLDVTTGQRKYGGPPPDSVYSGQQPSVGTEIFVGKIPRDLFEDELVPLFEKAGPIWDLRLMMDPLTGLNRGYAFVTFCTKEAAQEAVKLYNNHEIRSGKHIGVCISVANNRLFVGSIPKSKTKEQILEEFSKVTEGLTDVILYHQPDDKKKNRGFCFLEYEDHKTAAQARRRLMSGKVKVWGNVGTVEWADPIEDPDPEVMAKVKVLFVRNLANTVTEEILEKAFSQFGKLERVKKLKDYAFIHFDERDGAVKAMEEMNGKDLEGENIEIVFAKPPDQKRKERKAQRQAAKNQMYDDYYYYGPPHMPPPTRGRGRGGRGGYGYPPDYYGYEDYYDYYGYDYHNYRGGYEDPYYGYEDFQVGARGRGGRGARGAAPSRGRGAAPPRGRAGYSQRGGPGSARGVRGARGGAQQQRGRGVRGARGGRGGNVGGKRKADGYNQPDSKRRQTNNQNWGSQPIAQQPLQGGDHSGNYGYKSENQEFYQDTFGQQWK
UniProt P17066: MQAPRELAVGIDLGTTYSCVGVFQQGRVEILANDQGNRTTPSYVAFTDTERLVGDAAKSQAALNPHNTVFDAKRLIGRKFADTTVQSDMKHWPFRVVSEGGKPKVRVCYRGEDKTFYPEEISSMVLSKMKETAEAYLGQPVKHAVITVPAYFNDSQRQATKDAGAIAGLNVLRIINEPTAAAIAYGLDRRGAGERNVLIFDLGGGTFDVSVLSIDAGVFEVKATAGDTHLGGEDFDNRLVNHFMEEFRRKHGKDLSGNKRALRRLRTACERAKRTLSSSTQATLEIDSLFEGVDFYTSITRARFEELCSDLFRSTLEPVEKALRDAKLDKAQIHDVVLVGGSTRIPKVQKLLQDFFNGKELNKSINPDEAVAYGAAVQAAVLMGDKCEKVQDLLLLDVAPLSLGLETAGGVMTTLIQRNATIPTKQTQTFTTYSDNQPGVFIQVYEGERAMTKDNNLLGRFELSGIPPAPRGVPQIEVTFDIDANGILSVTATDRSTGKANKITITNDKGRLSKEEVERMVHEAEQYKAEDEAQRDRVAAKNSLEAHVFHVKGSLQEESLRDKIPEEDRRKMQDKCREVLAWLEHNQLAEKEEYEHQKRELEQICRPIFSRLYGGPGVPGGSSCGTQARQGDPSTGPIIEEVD
UniProt Q9UPQ9: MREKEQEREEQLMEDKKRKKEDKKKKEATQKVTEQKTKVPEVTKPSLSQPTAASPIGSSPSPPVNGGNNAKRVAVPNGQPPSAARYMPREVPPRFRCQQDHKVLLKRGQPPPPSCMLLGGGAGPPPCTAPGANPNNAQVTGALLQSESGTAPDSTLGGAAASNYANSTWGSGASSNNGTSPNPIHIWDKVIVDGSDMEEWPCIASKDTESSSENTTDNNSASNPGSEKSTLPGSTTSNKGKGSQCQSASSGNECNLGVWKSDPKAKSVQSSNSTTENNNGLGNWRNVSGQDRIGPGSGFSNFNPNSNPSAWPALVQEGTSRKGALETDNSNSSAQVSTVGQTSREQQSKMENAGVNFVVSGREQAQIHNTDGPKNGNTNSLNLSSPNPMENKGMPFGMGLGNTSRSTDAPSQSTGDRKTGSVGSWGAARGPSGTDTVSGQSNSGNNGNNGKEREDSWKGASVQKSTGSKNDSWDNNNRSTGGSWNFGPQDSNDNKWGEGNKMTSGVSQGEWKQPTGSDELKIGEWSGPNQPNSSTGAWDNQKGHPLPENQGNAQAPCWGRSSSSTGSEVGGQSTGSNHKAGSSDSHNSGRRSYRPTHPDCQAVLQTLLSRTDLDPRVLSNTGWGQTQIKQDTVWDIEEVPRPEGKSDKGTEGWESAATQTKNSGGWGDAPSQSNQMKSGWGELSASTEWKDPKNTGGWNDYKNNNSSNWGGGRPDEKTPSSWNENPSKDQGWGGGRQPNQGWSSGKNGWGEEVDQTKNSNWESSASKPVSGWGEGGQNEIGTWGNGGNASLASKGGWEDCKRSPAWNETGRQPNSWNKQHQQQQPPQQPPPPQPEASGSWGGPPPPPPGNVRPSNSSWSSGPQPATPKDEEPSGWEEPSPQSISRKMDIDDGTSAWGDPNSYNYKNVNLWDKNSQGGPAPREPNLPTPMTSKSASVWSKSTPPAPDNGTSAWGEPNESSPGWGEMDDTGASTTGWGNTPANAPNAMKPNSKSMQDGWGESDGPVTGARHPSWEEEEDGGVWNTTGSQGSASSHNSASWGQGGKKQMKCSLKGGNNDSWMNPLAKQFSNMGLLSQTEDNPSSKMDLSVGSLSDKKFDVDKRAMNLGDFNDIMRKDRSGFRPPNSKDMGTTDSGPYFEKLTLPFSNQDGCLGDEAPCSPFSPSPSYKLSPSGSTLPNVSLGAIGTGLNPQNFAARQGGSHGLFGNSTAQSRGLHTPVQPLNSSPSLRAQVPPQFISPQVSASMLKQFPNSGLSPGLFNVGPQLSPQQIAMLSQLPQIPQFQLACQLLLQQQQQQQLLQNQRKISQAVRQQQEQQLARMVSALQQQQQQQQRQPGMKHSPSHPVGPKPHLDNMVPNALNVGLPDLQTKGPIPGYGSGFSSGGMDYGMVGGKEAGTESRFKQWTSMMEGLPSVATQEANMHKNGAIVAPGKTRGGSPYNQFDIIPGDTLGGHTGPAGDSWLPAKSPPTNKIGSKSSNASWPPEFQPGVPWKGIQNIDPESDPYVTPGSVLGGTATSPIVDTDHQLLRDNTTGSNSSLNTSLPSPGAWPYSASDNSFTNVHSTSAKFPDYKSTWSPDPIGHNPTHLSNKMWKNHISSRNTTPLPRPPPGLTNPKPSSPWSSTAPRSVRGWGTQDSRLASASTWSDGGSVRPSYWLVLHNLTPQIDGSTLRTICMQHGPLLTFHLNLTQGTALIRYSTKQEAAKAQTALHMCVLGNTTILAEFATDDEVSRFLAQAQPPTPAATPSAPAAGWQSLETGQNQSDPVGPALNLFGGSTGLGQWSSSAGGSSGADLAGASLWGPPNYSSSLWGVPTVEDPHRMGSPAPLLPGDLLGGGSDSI
UniProt P11940: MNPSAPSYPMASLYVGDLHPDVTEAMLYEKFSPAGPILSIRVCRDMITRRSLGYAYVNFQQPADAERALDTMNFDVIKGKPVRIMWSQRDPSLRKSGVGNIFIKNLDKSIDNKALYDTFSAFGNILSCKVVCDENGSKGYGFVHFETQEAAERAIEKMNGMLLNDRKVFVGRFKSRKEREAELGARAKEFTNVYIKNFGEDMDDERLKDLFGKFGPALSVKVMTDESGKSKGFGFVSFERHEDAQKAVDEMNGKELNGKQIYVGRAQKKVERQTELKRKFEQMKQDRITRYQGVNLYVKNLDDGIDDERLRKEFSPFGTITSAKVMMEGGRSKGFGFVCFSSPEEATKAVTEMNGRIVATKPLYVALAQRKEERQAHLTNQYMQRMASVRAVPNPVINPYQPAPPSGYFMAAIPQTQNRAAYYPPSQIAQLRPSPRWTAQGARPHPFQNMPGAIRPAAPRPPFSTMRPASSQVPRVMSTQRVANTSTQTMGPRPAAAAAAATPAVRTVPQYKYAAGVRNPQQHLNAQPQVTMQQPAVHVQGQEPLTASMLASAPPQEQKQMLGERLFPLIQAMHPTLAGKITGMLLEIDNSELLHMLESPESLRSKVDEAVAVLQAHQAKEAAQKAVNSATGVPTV
UniProt P0DMV8: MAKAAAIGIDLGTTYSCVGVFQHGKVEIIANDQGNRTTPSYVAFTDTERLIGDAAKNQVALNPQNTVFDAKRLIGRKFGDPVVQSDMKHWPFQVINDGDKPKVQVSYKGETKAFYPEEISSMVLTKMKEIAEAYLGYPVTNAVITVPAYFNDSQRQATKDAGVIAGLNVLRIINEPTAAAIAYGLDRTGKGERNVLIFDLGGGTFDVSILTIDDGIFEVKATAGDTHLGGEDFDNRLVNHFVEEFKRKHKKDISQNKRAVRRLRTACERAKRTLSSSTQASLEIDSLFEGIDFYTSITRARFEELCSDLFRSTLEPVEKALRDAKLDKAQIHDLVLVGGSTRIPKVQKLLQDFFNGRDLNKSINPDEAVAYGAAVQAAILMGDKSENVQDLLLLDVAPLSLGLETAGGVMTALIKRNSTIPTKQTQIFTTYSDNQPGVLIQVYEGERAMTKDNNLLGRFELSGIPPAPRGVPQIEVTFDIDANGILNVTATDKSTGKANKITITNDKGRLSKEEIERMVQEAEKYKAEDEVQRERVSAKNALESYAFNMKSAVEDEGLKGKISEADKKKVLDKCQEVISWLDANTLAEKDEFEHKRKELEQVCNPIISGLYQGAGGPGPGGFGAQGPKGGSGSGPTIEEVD

T2: FLAG-tagged DND1 wild-type (full-length human Dead End, 1-353) (human) (UniProt Q8IYX4)
T2 sequence: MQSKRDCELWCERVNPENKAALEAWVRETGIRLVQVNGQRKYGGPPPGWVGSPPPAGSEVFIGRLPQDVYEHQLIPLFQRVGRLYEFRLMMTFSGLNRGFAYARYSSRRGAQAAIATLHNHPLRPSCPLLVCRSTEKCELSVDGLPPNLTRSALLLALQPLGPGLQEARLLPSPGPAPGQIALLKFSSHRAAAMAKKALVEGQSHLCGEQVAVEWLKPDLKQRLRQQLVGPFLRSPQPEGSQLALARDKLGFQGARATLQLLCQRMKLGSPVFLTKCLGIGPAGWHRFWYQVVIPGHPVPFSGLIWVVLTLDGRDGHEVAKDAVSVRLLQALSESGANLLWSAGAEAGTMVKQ

T3: FLAG-tagged DND1 R98A (full-length, RRM1 RNP1 RNA binding mutant) (human) (UniProt Q8IYX4)
T3 sequence: T2 sequence with R98A

B1: MEX3A (protein, UniProt A1L020 1-520)
chain: MPSLVVSGIMERNGGFGELGCFGGSAKDRGLLEDERALQLALDQLCLLGLGEPPAPTAGEDGGGGGGGAPAQPAAPPQPAPPPPPAAPPAAPTAAPAAQTPQPPTAPKGASDAKLCALYKEAELRLKGSSNTTECVPVPTSEHVAEIVGRQGCKIKALRAKTNTYIKTPVRGEEPVFMVTGRREDVATARREIISAAEHFSMIRASRNKSGAAFGVAPALPGQVTIRVRVPYRVVGLVVGPKGATIKRIQQQTNTYIITPSRDRDPVFEITGAPGNVERAREEIETHIAVRTGKILEYNNENDFLAGSPDAAIDSRYSDAWRVHQPGCKPLSTFRQNSLGCIGECGVDSGFEAPRLGEQGGDFGYGGYLFPGYGVGKQDVYYGVAETSPPLWAGQENATPTSVLFSSASSSSSSSAKARAGPPGAHRSPATSAGPELAGLPRRPPGEPLQGFSKLGGGGLRSPGGGRDCMVCFESEVTAALVPCGHNLFCMECAVRICERTDPECPVCHITATQAIRIFS
B2: MOV10 (protein, UniProt Q9HCE1 1-1003)
chain: MPSKFSCRQLREAGQCFESFLVVRGLDMETDRERLRTIYNRDFKISFGTPAPGFSSMLYGMKIANLAYVTKTRVRFFRLDRWADVRFPEKRRMKLGSDISKHHKSLLAKIFYDRAEYLHGKHGVDVEVQGPHEARDGQLLIRLDLNRKEVLTLRLRNGGTQSVTLTHLFPLCRTPQFAFYNEDQELPCPLGPGECYELHVHCKTSFVGYFPATVLWELLGPGESGSEGAGTFYIARFLAAVAHSPLAAQLKPMTPFKRTRITGNPVVTNRIEEGERPDRAKGYDLELSMALGTYYPPPRLRQLLPMLLQGTSIFTAPKEIAEIKAQLETALKWRNYEVKLRLLLHLEELQMEHDIRHYDLESVPMTWDPVDQNPRLLTLEVPGVTESRPSVLRGDHLFALLSSETHQEDPITYKGFVHKVELDRVKLSFSMSLLSRFVDGLTFKVNFTFNRQPLRVQHRALELTGRWLLWPMLFPVAPRDVPLLPSDVKLKLYDRSLESNPEQLQAMRHIVTGTTRPAPYIIFGPPGTGKTVTLVEAIKQVVKHLPKAHILACAPSNSGADLLCQRLRVHLPSSIYRLLAPSRDIRMVPEDIKPCCNWDAKKGEYVFPAKKKLQEYRVLITTLITAGRLVSAQFPIDHFTHIFIDEAGHCMEPESLVAIAGLMEVKETGDPGGQLVLAGDPRQLGPVLRSPLTQKHGLGYSLLERLLTYNSLYKKGPDGYDPQFITKLLRNYRSHPTILDIPNQLYYEGELQACADVVDRERFCRWAGLPRQGFPIIFHGVMGKDEREGNSPSFFNPEEAATVTSYLKLLLAPSSKKGKARLSPRSVGVISPYRKQVEKIRYCITKLDRELRGLDDIKDLKVGSVEEFQGQERSVILISTVRSSQSFVQLDLDFNLGFLKNPKRFNVAVTRAKALLIIVGNPLLLGHDPDWKVFLEFCKENGGYTGCPFPAKLDLQQGQNLLQGLSKLSPSTSGPHSHDYLPQEREGEGGLSLQVEPEWRNEL
B3: HNRNPL (protein, UniProt P14866 1-589)
chain: MSRRLLPRAEKRRRRLEQRQQPDEQRRRSGAMVKMAAAGGGGGGGRYYGGGSEGGRAPKRLKTDNAGDQHGGGGGGGGGAGAAGGGGGGENYDDPHKTPASPVVHIRGLIDGVVEADLVEALQEFGPISYVVVMPKKRQALVEFEDVLGACNAVNYAADNQIYIAGHPAFVNYSTSQKISRPGDSDDSRSVNSVLLFTILNPIYSITTDVLYTICNPCGPVQRIVIFRKNGVQAMVEFDSVQSAQRAKASLNGADIYSGCCTLKIEYAKPTRLNVFKNDQDTWDYTNPNLSGQGDPGSNPNKRQRQPPLLGDHPAEYGGPHGGYHSHYHDEGYGPPPPHYEGRRMGPPVGGHRRGPSRYGPQYGHPPPPPPPPEYGPHADSPVLMVYGLDQSKMNCDRVFNVFCLYGNVEKVKFMKSKPGAAMVEMADGYAVDRAITHLNNNFMFGQKLNVCVSKQPAIMPGQSYGLEDGSCSYKDFSESRNNRFSTPEQAAKNRIQHPSNVLHFFNAPLEVTEENFFEICDELGVKRPSSVKVFSGKSERSSSGLLEWESKSDALETLGFLNHYQMKNPNGPYPYTLKLCFSTAQHAS
B4: DHX30 (protein, UniProt Q7L2E3 1-1194)
chain: MFSLDSFRKDRAQHRQRQCKLPPPRLPPMCVNPTPGGTISRASRDLLKEFPQPKNLLNSVIGRALGISHAKDKLVYVHTNGPKKKKVTLHIKWPKSVEVEGYGSKKIDAERQAAAAACQLFKGWGLLGPRNELFDAAKYRVLADRFGSPADSWWRPEPTMPPTSWRQLNPESIRPGGPGGLSRSLGREEEEDEEEELEEGTIDVTDFLSMTQQDSHAPLRDSRGSSFEMTDDDSAIRALTQFPLPKNLLAKVIQIATSSSTAKNLMQFHTVGTKTKLSTLTLLWPCPMTFVAKGRRKAEAENKAAALACKKLKSLGLVDRNNEPLTHAMYNLASLRELGETQRRPCTIQVPEPILRKIETFLNHYPVESSWIAPELRLQSDDILPLGKDSGPLSDPITGKPYVPLLEAEEVRLSQSLLELWRRRGPVWQEAPQLPVDPHRDTILNAIEQHPVVVISGDTGCGKTTRIPQLLLERYVTEGRGARCNVIITQPRRISAVSVAQRVSHELGPSLRRNVGFQVRLESKPPSRGGALLFCTVGILLRKLQSNPSLEGVSHVIVDEVHERDVNTDFLLILLKGLQRLNPALRLVLMSATGDNERFSRYFGGCPVIKVPGFMYPVKEHYLEDILAKLGKHQYLHRHRHHESEDECALDLDLVTDLVLHIDARGEPGGILCFLPGWQEIKGVQQRLQEALGMHESKYLILPVHSNIPMMDQKAIFQQPPVGVRKIVLATNIAETSITINDIVHVVDSGLHKEERYDLKTKVSCLETVWVSRANVIQRRGRAGRCQSGFAYHLFPRSRLEKMVPFQVPEILRTPLENLVLQAKIHMPEKTAVEFLSKAVDSPNIKAVDEAVILLQEIGVLDQREYLTTLGQRLAHISTDPRLAKAIVLAAIFRCLHPLLVVVSCLTRDPFSSSLQNRAEVDKVKALLSHDSGSDHLAFVRAVAGWEEVLRWQDRSSRENYLEENLLYAPSLRFIHGLIKQFSENIYEAFLVGKPSDCTLASAQCNEYSEEEELVKGVLMAGLYPNLIQVRQGKVTRQGKFKPNSVTYRTKSGNILLHKSTINREATRLRSRWLTYFMAVKSNGSVFVRDSSQVHPLAVLLLTDGDVHIRDDGRRATISLSDSDLLRLEGDSRTVRLLKELRRALGRMVERSLRSELAALPPSVQEEHGQLLALLAELLRGPCGSFDVRKTADD

Legend:
Test in all cases: affinity purification with mass spectrometry
[1] = molecular target: T1, FLAG-tagged DND1 1-235 dsRBD truncation mutant (human)
[2] = molecular target: T2, FLAG-tagged DND1 wild-type (full-length human Dead End, 1-353) (human)
[3] = molecular target: T3, FLAG-tagged DND1 R98A (full-length, RRM1 RNP1 RNA binding mutant) (human)
[4] = molecular target: T1, FLAG-tagged DND1 1-235 dsRBD truncation mutant (human); remark: listed apart in the source
[5] = molecular target: T2, FLAG-tagged DND1 wild-type (full-length human Dead End, 1-353) (human); remark: listed apart in the source
[6] = molecular target: T3, FLAG-tagged DND1 R98A (full-length, RRM1 RNP1 RNA binding mutant) (human); remark: listed apart in the source

| Molecule | binding [1] | binding [2] | binding [5] | further results |
| --- | --- | --- | --- | --- |
| DDX17 (from UniProt Q92841 1-729) | binds | binds | – | – |
| ELAVL1/HuR (from UniProt Q15717 1-326) | – | binds | – | binding [3]: binds |
| SYNCRIP (from UniProt O60506 1-623) | – | binds | – | binding [3]: binds |
| HSPA6 (from UniProt P17066 1-643) | binds | binds | – | – |
| TNRC6B (from UniProt Q9UPQ9 1-1833) | binds | binds | – | – |
| PABPC1 (from UniProt P11940 1-636) | – | binds | – | binding [3]: binds |
| HSPA1A (from UniProt P0DMV8 1-641) | binds | binds | – | – |
| B1 | – | – | binds | binding [4]: binds |
| B2 | – | – | binds | binding [6]: binds |
| B3 | – | – | binds | binding [6]: binds |
| B4 | – | – | binds | binding [6]: binds |
